This note sets out measurements from the supplement of paper PMC10735217.

This experiment has as its system HEK293A TEAD-LUC reporter. In words: TEAD-luciferase reporter activity (YAP activation), robust Z score vs plate; higher = stronger YAP/TEAD activation. The note with it: 24 h. A general note: In a reporter assay the amount or activity of a reporter protein is the signal.

Counter-ions that a name gives are not always drawn. The list shows a part of the results. Single values are uncertain here, since repeats match poorly.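 Human kidney-derived cells stably carry a construct in which eight TEAD-binding elements drive luciferase, measured by luminescence in a drug-repurposing library screen. A hit is any compound whose signal exceeds the plate mean by more than five robust Z scores.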

Consider `CCOC(=O)C1(Cc2cscn2)CCCN(C(=O)[C@@H](Cc2c[nH]c3ccccc23)NC(=O)C(C)(C)N)C1` (stereo partly specified), for which the TEAD-luciferase reporter activity was inactive: -1.12 (compound concentration: 200 nM), inactive: 0.0709 (compound concentration: 2 uM) and inactive: -0.142 (compound concentration: 10 uM).

In the case of `CN/C(=C\[N+](=O)[O-])NCCSCc1ccc(CNC2C3CC4C(C3)C42)o1` (stereo unspecified), the TEAD-luciferase reporter activity is inactive: 0.134 (compound concentration: 200 nM), inactive: -0.796 (compound concentration: 2 uM) and inactive: 0.504 (compound concentration: 10 uM).

`C#C[C@]1(OC(C)=O)CC[C@H]2[C@@H]3CCC4=C[C@@H](OC(C)=O)CC[C@@H]4[C@H]3CC[C@@]21C`: the TEAD-luciferase reporter activity (compound concentration: 200 nM) is inactive: -1.63, the TEAD-luciferase reporter activity (compound concentration: 2 uM) was inactive: -1.31 and the TEAD-luciferase reporter activity (compound concentration: 10 uM) was inactive: -0.795.

Regarding `CC(CC(c1ccccc1)c1ccccc1)NC(C)(C)C` (stereo unspecified) [terodiline], the TEAD-luciferase reporter activity is inactive: 4.57 (compound concentration: 200 nM), inactive: -0.734 (compound concentration: 2 uM) and inactive: 2.16 (compound concentration: 10 uM).

On to `Cc1cc(C)cc(OCC2CNC(=O)O2)c1` (stereo unspecified) [metaxalone], for which the TEAD-luciferase reporter activity (compound concentration: 200 nM) is inactive: -1.02, the TEAD-luciferase reporter activity (compound concentration: 2 uM) is inactive: -1.92 and the TEAD-luciferase reporter activity (compound concentration: 10 uM) is inactive: -0.931.

As to `COc1ccc(S(=O)(=O)N2C(=O)[C@@](c3ccccc3OC)(N3C[C@H](O)C[C@H]3C(=O)N(C)C)c3cc(Cl)ccc32)c(OC)c1`, the TEAD-luciferase reporter activity runs as follows: (compound concentration: 200 nM) inactive: -0.238; (compound concentration: 2 uM) inactive: -0.691; (compound concentration: 10 uM) inactive: 0.73.

`CC(C)CC(=O)Nc1n[nH]c2c1CN(C(=O)C1CCN(C)CC1)C2(C)C`: the TEAD-luciferase reporter activity is inactive: -2.01 (compound concentration: 200 nM), inactive: -2.83 (compound concentration: 2 uM) and inactive: -2.88 (compound concentration: 10 uM).

Turning to `CN(CCC=C1c2ccccc2CCc2ccccc21)C(=O)CCCN` [Nortriptyline-GABA], the TEAD-luciferase reporter activity reads like this: (compound concentration: 200 nM) inactive: 2.56; (compound concentration: 2 uM) inactive: -1.28; (compound concentration: 10 uM) inactive: 0.228.

Turning to `CC(=O)N1Cc2ccccc2CC2(CCCN2CC2CCCC2)C1` (stereo unspecified), the TEAD-luciferase reporter activity is inactive: -1.52 (compound concentration: 200 nM) and inactive: -0.0219 (compound concentration: 10 uM).

Turning to `C[C@H](N)c1ccc([C@H](O)CNC(C)(C)C)cc1`, the TEAD-luciferase reporter activity was inactive: 0.849 (compound concentration: 200 nM), inactive: 0.807 (compound concentration: 2 uM) and inactive: -1.6 (compound concentration: 10 uM).

With `CC(=O)N[C@@H](CC(C)C)C(=O)N1CCC[C@H]1C(=O)N[C@@H](Cc1ccccc1)C(=O)N[C@@H](Cc1ccccc1)C(=O)N[C@@H](CC(=O)O)C(N)=O`, the TEAD-luciferase reporter activity is, setting by setting: (compound concentration: 200 nM) inactive: -0.877; (compound concentration: 2 uM) inactive: -0.0497; (compound concentration: 10 uM) inactive: -0.24.

On to `CC1=C(C(=O)O)N2C(=O)[C@@H](NC(=O)[C@H](N)c3ccccc3)C2SC1` (stereo partly specified) [cefalexin HCl monohydrate], for which the TEAD-luciferase reporter activity (compound concentration: 200 nM) was inactive: -1.37, the TEAD-luciferase reporter activity (compound concentration: 2 uM) is inactive: 1.56 and the TEAD-luciferase reporter activity (compound concentration: 10 uM) was inactive: -0.734.

For `CC(C)(O)Cn1cnc2c(N)nc3ccccc3c21`, the TEAD-luciferase reporter activity (compound concentration: 200 nM) is inactive: -1.47, the TEAD-luciferase reporter activity (compound concentration: 2 uM) was inactive: 0.593 and the TEAD-luciferase reporter activity (compound concentration: 10 uM) was inactive: 0.191.

`Clc1ccccc1CN1CCc2sccc2C1` [Ticlopidine Hydrochloride]: the TEAD-luciferase reporter activity reads like this: (compound concentration: 200 nM) inactive: -1.61; (compound concentration: 10 uM) inactive: -1.88.

In the case of `Clc1ccccc1CN1CCc2sccc2C1` [ticlopidine], the TEAD-luciferase reporter activity (compound concentration: 2 uM) is inactive: -0.196.

As to `CC(C)CCC[C@@H](C)[C@H]1CC[C@H]2[C@@H]3CC/C(=N\O)[C@](C)(CCCO)[C@H]3CC[C@]12C`, the TEAD-luciferase reporter activity (compound concentration: 200 nM) is inactive: 2.48, the TEAD-luciferase reporter activity (compound concentration: 2 uM) was inactive: -2.04 and the TEAD-luciferase reporter activity (compound concentration: 10 uM) was inactive: -0.34.

As to `O=C1CCC(NC(=O)Cc2ccccc2)C(=O)N1` (stereo unspecified) [antineoplaston A10], the TEAD-luciferase reporter activity (compound concentration: 200 nM) was inactive: 1.07, the TEAD-luciferase reporter activity (compound concentration: 2 uM) was inactive: -1.3 and the TEAD-luciferase reporter activity (compound concentration: 10 uM) is inactive: -0.283.

Take `COc1cccc(-c2ccc(CN3CCCC3C(=O)NCc3ccc4c(c3)OCO4)cc2)c1` (stereo unspecified): the TEAD-luciferase reporter activity is inactive: 3.26 (compound concentration: 200 nM) and inactive: 1.58 (compound concentration: 10 uM).

Take `O=C1c2ccccc2CN1C1CCN(Cc2ccc(F)cc2)CC1`: the TEAD-luciferase reporter activity by setting is: (compound concentration: 200 nM) inactive: -0.177; (compound concentration: 10 uM) inactive: 2.01.

For the compound `CN(C)c1nc(N(C)C)nc(N(C)C)n1` [altretamine], the TEAD-luciferase reporter activity (compound concentration: 2 uM) is inactive: 2.24.

With `CN(C)c1nc(N(C)C)nc(N(C)C)n1`, the TEAD-luciferase reporter activity (compound concentration: 200 nM) was inactive: -1.82 and the TEAD-luciferase reporter activity (compound concentration: 10 uM) is inactive: 2.83.

Regarding `O=C(O)c1ccc(NC2OC(CO)C(O)C(O)C2O)cc1` (stereo unspecified), the TEAD-luciferase reporter activity reads like this: (compound concentration: 200 nM) inactive: -0.418; (compound concentration: 2 uM) inactive: 0.663; (compound concentration: 10 uM) inactive: -1.12.

Take `CCOC(=O)CN1CCN(C[C@@H]2CN(c3ccc(C(=N)NC(=O)OC)cc3)C(=O)O2)CC1` [Gantofiban]: the TEAD-luciferase reporter activity runs as follows: (compound concentration: 200 nM) inactive: -1.32; (compound concentration: 2 uM) inactive: -1.15; (compound concentration: 10 uM) inactive: -0.269.

On to `COC(=O)C(N)Cc1ccc(O)c(O)c1` (stereo unspecified) [levodopa, Dizlin Medical Design], for which the TEAD-luciferase reporter activity reads like this: (compound concentration: 200 nM) inactive: -0.94; (compound concentration: 2 uM) inactive: 0.402; (compound concentration: 10 uM) inactive: -0.545.

With `CCCCCCCC/C=C\CCCCCCCC(=O)O[C@H]1C[C@H](n2cc(F)c(=O)[nH]c2=O)O[C@@H]1COP(=O)([O-])OCC[N+](C)(C)C`, the TEAD-luciferase reporter activity was inactive: -1.56 (compound concentration: 200 nM), inactive: 0.706 (compound concentration: 2 uM) and inactive: 0.502 (compound concentration: 10 uM).

Turning to `O=S(=O)(O)c1ccc2[nH]c(-c3ccccc3)nc2c1`, the TEAD-luciferase reporter activity runs as follows: (compound concentration: 200 nM) inactive: 2.25; (compound concentration: 2 uM) inactive: -0.123; (compound concentration: 10 uM) inactive: -1.49.

On to `CCN(CC)C(=O)CNC(=O)c1cc(OC)c(OC)c(OC)c1`, for which the TEAD-luciferase reporter activity is inactive: 2.08 (compound concentration: 200 nM) and inactive: 1.02 (compound concentration: 10 uM).
